According to article PMC12508185:
These are yes or no findings as the source states them, for the method shown. Binding seen in cells or lysates may run through a third protein. A result given as binding can be weak or reduced; the word gives no strength. Where a sequence is shown, tags or fusion partners need not be part of it.

The chains behind the UniProt entries cited, without tags or fusion partners. Where a name states a change or a piece, a line headed by the entry shows the natural chain unless it says otherwise.
UniProt Q9FKX5: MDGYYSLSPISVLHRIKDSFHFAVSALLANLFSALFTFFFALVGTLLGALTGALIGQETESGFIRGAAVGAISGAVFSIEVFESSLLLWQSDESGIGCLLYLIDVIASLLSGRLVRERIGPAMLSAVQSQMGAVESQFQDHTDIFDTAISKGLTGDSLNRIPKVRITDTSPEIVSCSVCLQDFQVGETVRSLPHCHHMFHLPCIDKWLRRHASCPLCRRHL

B1: nYFP-DSK2B (protein, UniProt Q9SII8 1-551)
chain: MGGEGDSSQPQSGEGEAVAVNIRCSNGTKFSVKTSLDSTVESFKELVAQSSDVPANQQRLIYKGRILKDDQTLLSYGLQADHTIHMVRGSAPSSAPPPAPAASQTTAPSVTRGVGSDNSSNLGGASPGESLFPGLGFNPLGGGNAMSGLFGAGLPDLVQTQQQLAQNPNMIRDMMNTPAIQNLMNNPEFMRSMIMNNPQMRELVDRNPELGHVLNDPSILRQTLEAARNPELMREMMRNTDRAMSNIESMPEGFNMLRRMYENVQEPLMNATTMSGNAGNNTGSNPFAALLGNQGVTTQGSDASNNSSTPNAGTGTIPNANPLPNPWGATGGQTTAPGRTNVGGDARSPGLGGLGGLGSLGGLGGLGMLGADSPLGATPDASQLSQLLQNPAISQMMQSVFSNPQYMNQLMSLNPQLRSMLDSNPQLREMMQNPDFLRQFSSPEMMQQMMTLQQSLSQNRNTASQDAGQTGAATGNNGGLDLLMNMFGSLGAGGLSGTNQSNVPPEERYATQLQQLQEMGFYDRAENIRALLATNGNVNAAVERLLGSIGQ
B2: nLUC-DSK2B (protein, UniProt Q9SII8 1-551)
chain: B1 chain

Legend:
[1] = target: SRAS1.2-cYFP (Arabidopsis thaliana) (UniProt Q9FKX5); assay: split reporter; BiFC in N. benthamiana leaves; cYFP and nYFP fusions; confocal microscopy after 48 h
[2] = target: SRAS1.2-cLUC (Arabidopsis thaliana) (UniProt Q9FKX5); assay: split reporter; luciferase complementation imaging (LCI) in N. benthamiana leaves; cLUC and nLUC fusions; 0.2 mM D-luciferin, CCD camera

| Binder | binding [1] | binding [2] |
| --- | --- | --- |
| B1 | binds | – |
| B2 | – | binds |
